Results are given in words; binding and its absence hold for the method and conditions named. In cells and extracts the contact can be indirect. Some entries that bind do so weakly or less than the wild type.
Biological target: T1, endothelial nitric oxide synthase (human) (UniProt P29474)
T1 sequence (looked up): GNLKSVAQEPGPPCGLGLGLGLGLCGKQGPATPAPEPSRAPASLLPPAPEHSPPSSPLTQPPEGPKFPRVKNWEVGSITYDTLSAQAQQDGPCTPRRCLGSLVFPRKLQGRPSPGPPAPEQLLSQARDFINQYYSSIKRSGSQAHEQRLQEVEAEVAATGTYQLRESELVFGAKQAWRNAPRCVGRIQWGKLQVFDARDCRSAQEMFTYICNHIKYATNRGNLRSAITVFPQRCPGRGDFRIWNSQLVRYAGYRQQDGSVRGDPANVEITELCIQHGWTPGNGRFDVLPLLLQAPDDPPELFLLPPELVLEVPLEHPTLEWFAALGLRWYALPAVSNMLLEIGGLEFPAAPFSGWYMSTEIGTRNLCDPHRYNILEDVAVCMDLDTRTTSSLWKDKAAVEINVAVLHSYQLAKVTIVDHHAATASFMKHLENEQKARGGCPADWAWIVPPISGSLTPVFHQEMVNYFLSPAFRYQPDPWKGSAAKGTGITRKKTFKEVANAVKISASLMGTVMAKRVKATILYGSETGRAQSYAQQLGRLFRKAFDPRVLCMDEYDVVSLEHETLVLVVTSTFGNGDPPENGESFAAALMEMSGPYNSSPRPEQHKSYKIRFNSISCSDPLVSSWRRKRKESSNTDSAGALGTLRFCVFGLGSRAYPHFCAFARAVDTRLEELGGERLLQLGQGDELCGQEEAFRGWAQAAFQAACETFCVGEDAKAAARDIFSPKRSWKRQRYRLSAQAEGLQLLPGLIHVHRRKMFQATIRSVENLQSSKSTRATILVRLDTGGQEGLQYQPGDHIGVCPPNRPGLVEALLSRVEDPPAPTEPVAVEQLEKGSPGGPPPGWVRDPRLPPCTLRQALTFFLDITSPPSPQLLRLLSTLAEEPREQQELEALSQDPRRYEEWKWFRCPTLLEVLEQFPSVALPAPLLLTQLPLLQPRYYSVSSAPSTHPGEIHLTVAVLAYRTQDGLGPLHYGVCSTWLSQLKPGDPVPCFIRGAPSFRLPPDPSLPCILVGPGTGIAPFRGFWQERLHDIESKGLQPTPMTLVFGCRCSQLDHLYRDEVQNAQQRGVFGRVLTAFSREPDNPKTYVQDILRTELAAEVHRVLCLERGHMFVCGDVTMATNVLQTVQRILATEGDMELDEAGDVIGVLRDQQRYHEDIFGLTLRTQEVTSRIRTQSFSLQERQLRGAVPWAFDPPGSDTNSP
Assay: co-immunoprecipitation from HUVEC lysate, western blot

Amino acid sequences for entries named in this document (tags omitted). A change or cut given only in a name is not applied to a line headed by its entry.
UniProt O00168: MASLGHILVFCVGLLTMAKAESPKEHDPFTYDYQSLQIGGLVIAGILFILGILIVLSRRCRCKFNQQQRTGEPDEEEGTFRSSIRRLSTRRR

binding: binds
Substance: FXYD1 (from UniProt O00168 21-92)

Reference: US20180185444A1
